Experimental data from US9752175B2, “Systems and methods to detect biofilm streamer growth and their uses” (The Trustees of Princeton University, priority 2014, dated 2017).
Values after ≈ are worked out from the molar mass of the structure shown. For at least one compound, name, drawing or mass did not settle the structure.

How the values were obtained:
[1] = system: Pseudomonas aeruginosa PA14; test: Microfluidic pressure-driven flow assay (biofilm streamer clogging); type: cell-based; details: low concentration of tetracycline; microfluidic channel 200 μm wide, 90 μm high
Description: Overnight P. aeruginosa cultures were backdiluted 1:100 in tryptone broth and grown to midlogarithmic phase (OD600=0.5). This culture (100 mL) was used to fill a reservoir connected via Tygon tubing (inner diameter 2.4 mm) to a microfluidic channel made from polydimethylsiloxane (PDMS) (Sylgard 184, Dow Corning). The channels (FIG. 1A) are 90 μm high, 200 μm wide, and constitute the narrowest part of the experimental flow system. Analogous to the inlet, the outlet of the microfluidic channel is also connected to Tygon tubing, and the effluent culture is collected in a dish on an analytical balance. By changing the elevation of the culture reservoir above the effluent collection dish, the applied pressure difference Δp is altered, which alters the flow rate through the channel. Operating this system for 24 h with H2O at a flow rate of 15.7±0.05 μL/min reduced the liquid level in the reservoir to decrease the pressure drop across the channel by 2.1%. […]
The weight of the effluent culture was measured every 4 s on an analytical balance (GD503, Sartorius), controlled with LabVIEW. […]
where the density was assumed to be the density of water, 1 kg/L. T and τ were calculated by fitting the function
[formula] to the measured flow rate Q(t), where Q0 is the flow rate before the clogging transition. […]

P. aeruginosa = details: cited from earlier work

For `CN(C)[C@@H]1C(O)=C(C(N)=O)C(=O)[C@@]2(O)C(O)=C3C(=O)c4c(O)cccc4[C@@](C)(O)[C@H]3C[C@@H]12` [tetracycline], the “time until clogging (T)” value [1] is listed as “prolonged” and the minimum inhibitory concentration (P. aeruginosa) is listed as 32 µg/mL (≈ 72 µM).
